# From PubChem BioAssay AID588590 (National Center for Advancing Translational Sciences (NCATS), 2011)
# Amino acid sequences for entries named in this document (tags omitted). A change or cut given only in a name is not applied to a line headed by its entry.
# UniProt Q9UNA4: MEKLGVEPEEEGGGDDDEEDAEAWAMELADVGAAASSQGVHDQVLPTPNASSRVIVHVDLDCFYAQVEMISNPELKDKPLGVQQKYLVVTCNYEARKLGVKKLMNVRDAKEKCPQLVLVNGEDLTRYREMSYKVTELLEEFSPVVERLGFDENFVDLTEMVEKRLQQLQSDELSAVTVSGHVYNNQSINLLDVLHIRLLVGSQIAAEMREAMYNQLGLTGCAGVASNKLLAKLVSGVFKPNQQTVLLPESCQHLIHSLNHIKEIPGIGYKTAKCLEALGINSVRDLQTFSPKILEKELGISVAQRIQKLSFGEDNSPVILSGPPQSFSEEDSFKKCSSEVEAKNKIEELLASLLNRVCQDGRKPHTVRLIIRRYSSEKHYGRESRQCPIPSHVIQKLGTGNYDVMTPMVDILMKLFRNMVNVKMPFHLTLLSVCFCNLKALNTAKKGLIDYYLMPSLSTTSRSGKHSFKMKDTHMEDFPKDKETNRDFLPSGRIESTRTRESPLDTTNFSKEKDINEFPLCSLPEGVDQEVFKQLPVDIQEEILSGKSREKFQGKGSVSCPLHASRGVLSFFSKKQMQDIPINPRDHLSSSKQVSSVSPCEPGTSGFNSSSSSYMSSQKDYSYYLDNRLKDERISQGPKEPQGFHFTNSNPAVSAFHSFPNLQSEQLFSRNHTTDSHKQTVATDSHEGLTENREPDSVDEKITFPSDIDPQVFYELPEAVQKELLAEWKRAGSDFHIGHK
# “And” between values parts separate entries of the source, which are not always exact repeats. Equal values may be shown once. Out of some 390,000 compounds screened, about 4,000 (1%) were called active. Inconclusive means that the source gave no clear call. Such entries were picked first, then a sample of the others. The call rests on the fitted dose curve; in most records, active means well fitted inhibition curve with a large enough effect; inconclusive means small, poorly fitted or top-dose-only effect, or another doubt; inactive means no such curve, though single readings can be large or run the other way. Where the call is inconclusive, the potency comes from a doubtful curve fit. More than one record can exist for a structure, and the calls need not agree.
# Target: DNA polymerase iota (Homo sapiens) (UniProt Q9UNA4)
# Experiment: qHTS for Inhibitors of Polymerase Iota
# Settings: Pol iota fluorescent replication assay, 10 min; series mostly up to 115 µM
# Procedure, shortened: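 Pol iota at 10 nM preincubated 15 min with compounds at room temperature; reaction started with fluorescent substrate, 50 nM final. Fluorescence read kinetically at 0 and 10 min; buffer-only wells as negative control.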
# Potency means the concentration at half of the fitted maximal effect.
row,Structure (SMILES),Potency
1,COC(=O)CN(C#N)c1nc(C)cc(C)n1,"inconclusive: 89.1 µM [inhibitor, single point]"
2,O=C(Nc1ccnn1C1CCN(C2CCCCC2)CC1)c1ccccc1,"inconclusive: 89.1 µM [inhibitor, partial curve, poor fit]"
3,COc1ccc(C)cc1S(=O)(=O)NC(C)C(=O)Nc1ccc2c(c1)OCO2 (centres undefined),"inconclusive: 3.55 µM [inhibitor, partial curve, poor fit]"
4,NC(CSC(c1ccccc1)(c1ccccc1)c1ccccc1)C(=O)O (centres undefined),"inconclusive: 44.7 µM [inhibitor, partial curve]"
5,CC[C@]12c3[nH]c4cc(-c5ccco5)ccc4c3CCN1C(=O)[C@@H](CC(=O)NCc1ccco1)C[C@@H]2C(=O)N1CCN(C(=O)c2ccco2)CC1,active: 50.1 µM
6,CCN(CC)S(=O)(=O)c1ccc2c(c1)N(CC(=O)Nc1c(C)cccc1C)C(=O)C1CCCN21 (centres undefined),inactive
7,Cc1ccccc1N1C(=O)C(Cl)=C(N2CCCCCC2)C1=O,"inconclusive: 12.6 µM [inhibitor, full curve, poor fit]"
8,CCCc1cc(N2CCN(c3ccccc3F)CC2)n2cnnc2n1,inactive
9,COc1ccccc1N1CCN(CCN2C(=O)CC3(CCCC3)CC2=O)CC1,"inconclusive: 31.6 µM [inhibitor, partial curve, poor fit]"
10,Cn1c(SCC(=O)NCc2ccco2)nnc1-c1ccccc1,inactive
11,S=C(Nc1ccccc1)Nc1nc2ccccc2n1CCOc1ccc(Br)cc1,inactive
12,Cc1cc(C2C(C#N)=C(N)SC(N)=C2C#N)c(C)s1,"inconclusive: 35.5 µM [inhibitor, partial curve, poor fit]"
13,O=c1[nH]n(-c2ccccc2)c(=O)c2ccccc12,"inconclusive: 0.708 µM [inhibitor, full curve, poor fit]"
14,CCN(CC)S(=O)(=O)c1ccc2c(c1)oc(=O)n2CC(=O)NC1CCCCC1,"inconclusive: 63.1 µM [inhibitor, partial curve, poor fit]"
15,Cc1cc(-c2nnc(-c3cc4ccccc4oc3=O)o2)c(C)n1-c1ccccc1,"inconclusive: 22.4 µM [inhibitor, partial curve, poor fit]"
16,CC(C)NC(=O)c1ccc2c(c1)N(CC(=O)N1CCCCC1)C(=O)C(C)(C)O2,"inconclusive: 79.4 µM [inhibitor, partial curve, poor fit]"
17,COc1ccc(C(=O)N[C@H](C(=O)NCCc2ccc3c(c2)OCCO3)C(C)C)cc1,inactive
18,COc1ccc2cc(CNc3ccc(C)cc3)c(=O)n(CC(=O)Nc3ccc(C)cc3Cl)c2c1,inactive
19,CN(C)c1ccc(/C=C2\C(=N)N3N=C(CC(=O)N4CCCCC4)SC3=NC2=O)cc1,active: 50.1 µM
20,C(=C\c1ccccc1)/C=N/N1CCN(c2ccccn2)CC1,"inconclusive: 112 µM [inhibitor, single point]"
21,Cc1ccc(-n2c(CCC(=O)O)ccc2-c2cccs2)cc1Cl,"inconclusive: 44.7 µM [inhibitor, partial curve]"
22,NC1CCc2ccccc21 (centres undefined),inactive
23,CSc1nc(C)cc(-n2ccc(=O)[nH]c2=O)n1,"inconclusive: 70.8 µM [inhibitor, full curve]"

row,Structure (SMILES),Potency
1,Cn1nnc(NC(=S)NC(=O)c2cccc3ccccc23)n1,"inconclusive: 89.1 µM [inhibitor, single point]"
2,COc1cccc(CNC(=O)c2ccc(-n3c(C)cc4c3CCCC4)cc2)c1,inactive
3,CCc1ccc(C(=O)CC2(O)C(=O)N(Cc3ccc(C)cc3)c3ccccc32)cc1 (centres undefined),"inconclusive: 79.4 µM [inhibitor, single point]"
4,COc1ccccc1C1NC(c2ccc3c(c2)OCO3)=CC(c2cc(Cl)ccc2O)N1 (centres undefined),"inconclusive: 11.2 µM [inhibitor, full curve, poor fit]"
5,C=CCNC(=O)c1cc(=O)c2ccccc2o1,"inconclusive: 89.1 µM [inhibitor, single point]"
6,COc1cc(OC)cc(-c2nc(-c3cc4cc(C)ccc4nc3OC)no2)c1,"inconclusive: 39.8 µM [inhibitor, single point]"
7,CCc1cccc(NC(=O)Nc2ccc3c(c2)OCO3)c1,"inconclusive: 100 µM [inhibitor, single point]"
8,O=C(/C=C/NNC(=O)c1ccc(Br)cc1)c1ccccc1,"inconclusive: 31.6 µM [inhibitor, partial curve, poor fit]"
9,O=C(NC(=S)N1CCCCC1)C12CC3CC(CC(C3)C1)C2,"inconclusive: 28.2 µM [inhibitor, single point]"
10,Cc1cc(C)c(Cn2c(=O)n(CCC(=O)NCc3ccc4c(c3)OCO4)c(=O)c3ccccc32)c(C)c1,inactive
11,COc1ccc(OC)c(CNC(=O)CCC(=O)N2Cc3cccc(OC)c3Oc3ncccc32)c1,"inconclusive: 50.1 µM [inhibitor, partial curve, poor fit]"
12,COc1cc(C2CC(=O)Nc3ccc4ccccc4c32)ccc1OC(=O)C(C)C (centres undefined),"inconclusive: 89.1 µM [inhibitor, single point]"
13,Cc1ccc(C2CC(C(F)F)n3ncc(C(=O)Nc4c(C)nn(Cc5c(F)cccc5Cl)c4C)c3N2)cc1 (centres undefined),"inconclusive: 89.1 µM [inhibitor, partial curve, poor fit]"
14,Nc1ccc2nc3c(=O)n(C4CCCCC4)c(=O)[nH]c3nc2c1,inactive
15,O=C(Nc1ccc(F)cc1)NC1CCN(Cc2nnnn2Cc2ccco2)CC1,"inconclusive: 39.8 µM [inhibitor, single point]"
16,Cn1nnnc1SCC1=C(C(=O)O)N2C(=O)C(NC(=O)C3CC3c3ccccc3)C2SC1 (centres undefined),active: 14.1 µM
17,CN(C)c1ccc(C(=O)Nc2ccc(S(=O)(=O)NC3=NCCCCC3)cc2)cc1,"inconclusive: 25.1 µM [inhibitor, full curve, poor fit]"
18,O=C1C(=C2CCCCC2)SC(=S)N1Cc1ccco1,"inconclusive: 15.8 µM [inhibitor, full curve]"
19,O=C(NCCc1ccc(Cl)cc1)c1ccc2ccccc2n1,"inconclusive: 56.2 µM [inhibitor, partial curve, poor fit]"
20,Cc1ccccc1-c1nnc(SCC(=O)Nc2ccc(Cl)cc2)n1N,inactive
21,Cc1ccc(NC(=O)C2CC(=O)N(C(C)C)C2)cc1Cl (centres undefined),inactive
22,COc1ccc(C(=O)Nc2nc3ccccc3s2)c(OC)c1,inactive
23,CCOC(=O)C(C#N)C(c1cccnc1)c1c(C)[nH][nH]c1=O (centres undefined),"inconclusive: 20 µM [inhibitor, partial curve, poor fit]"

row,Structure (SMILES),Potency
1,O=C(CSc1nnc2sc3ccccc3n12)N1CCN(c2ccccc2)CC1,"inconclusive: 79.4 µM [inhibitor, partial curve]"
2,Cc1nn(-c2ccccc2)c2c1cc1c(=O)[nH]c(=O)nc-1n2-c1cccc(C(F)(F)F)c1,"inconclusive: 11.2 µM [inhibitor, partial curve, poor fit]"
3,Cc1cc(C)c(NC(=O)c2ccc(CN3CCc4ccccc4C3)cc2)c(C)c1,"inconclusive: 0.794 µM [inhibitor, full curve, poor fit]"
4,CCCC12CN3CC(C)(CN(C1)C3c1ccc(CC)cc1)C2=O (centres undefined),inactive
5,Cc1cc([N+](=O)[O-])cc2c1NCC1CC=CC21 (centres undefined),inactive
6,CC(C)c1ccc(NC(=O)c2cc3c(=O)oc4ccccc4c3s2)cc1,inactive
7,O=C1/C(=C/c2ccncc2)SC(=S)N1Nc1ccccc1,"inconclusive: 22.4 µM [inhibitor, partial curve, poor fit]"
8,CCOc1cc(/C=C2\C(=N)N3N=C(C)SC3=NC2=O)ccc1OCCOc1cccc(OC)c1,inactive
9,CCOC(=O)C1(Nc2nccs2)Sc2ccccc2NC1=O (centres undefined),"inconclusive: 14.1 µM [inhibitor, partial curve]"
10,COc1ccc(N2CCN(C(CNC(=O)C(=O)NCc3ccc(C)cc3)c3cccnc3)CC2)cc1 (centres undefined),inactive
11,COc1ccc(-n2nc(C(=O)NCC(=O)N3CCN(Cc4ccccc4)CC3)c3ccccc3c2=O)cc1OC,"inconclusive: 89.1 µM [inhibitor, single point]"
12,O=[N+]([O-])c1cc(S(=O)(=O)C(F)(F)F)ccc1Sc1nc2ccccc2[nH]1,"inconclusive: 56.2 µM [inhibitor, partial curve, poor fit]"
13,Cc1cccc(N(Cc2ccc(Cl)cc2)S(C)(=O)=O)c1,"inconclusive: 3.55 µM [inhibitor, partial curve, poor fit]"
14,Nc1nc(SCC(=O)c2ccc([N+](=O)[O-])cc2)n[nH]1,"inconclusive: 25.1 µM [inhibitor, full curve, poor fit]"
15,Cc1cc(C(=O)Nc2cccnc2)on1,"inconclusive: 3.55 µM [inhibitor, partial curve, poor fit]"
16,Nc1nc(N)c(-c2ccccc2)s1,inactive
17,O=C(Nc1ccc(NC(=S)NC(=O)c2cccs2)cc1)c1ccco1,active: 35.5 µM
18,O=C(c1ccco1)N(CCCN1CCOCC1)c1nc(-c2ccc(F)cc2)cs1,inactive
19,COc1ccccc1NC(=S)N1CCN(c2ccccc2F)CC1,inactive
20,CC1(C)CC(=O)C=C(Nc2ccc(O)c(C(=O)O)c2)C1,"inconclusive: 15.8 µM [inhibitor, partial curve, poor fit]"
21,O=C(O)c1cc2cccc([N+](=O)[O-])c2[nH]1,inactive and active: 70.8 µM
22,COc1cccc(C2CN(c3ccc(F)cc3F)N=C2c2cccs2)c1OC (centres undefined),inactive
23,O=S(=O)(c1ccc2ncsc2c1)N1CCN(c2nc(-c3cccs3)nc3ccccc23)CC1,inactive
